Among the data in article PMC6539346, “Molecular and Structural Basis of the Proteasome α Subunit Assembly Mechanism Mediated by the Proteasome-Assembling Chaperone PAC3-PAC4 Heterodimer” (International Journal of Molecular Sciences, 2019) are binding values, retold here.

Chains of the proteins cited; added tags and fusions are not shown.
UniProt P60900: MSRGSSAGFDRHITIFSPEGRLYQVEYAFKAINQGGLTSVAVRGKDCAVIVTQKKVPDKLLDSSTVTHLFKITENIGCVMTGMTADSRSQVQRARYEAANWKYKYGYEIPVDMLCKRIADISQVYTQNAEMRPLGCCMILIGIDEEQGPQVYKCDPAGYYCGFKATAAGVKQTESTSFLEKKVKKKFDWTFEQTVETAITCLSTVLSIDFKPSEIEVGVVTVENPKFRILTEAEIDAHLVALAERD
UniProt P25787: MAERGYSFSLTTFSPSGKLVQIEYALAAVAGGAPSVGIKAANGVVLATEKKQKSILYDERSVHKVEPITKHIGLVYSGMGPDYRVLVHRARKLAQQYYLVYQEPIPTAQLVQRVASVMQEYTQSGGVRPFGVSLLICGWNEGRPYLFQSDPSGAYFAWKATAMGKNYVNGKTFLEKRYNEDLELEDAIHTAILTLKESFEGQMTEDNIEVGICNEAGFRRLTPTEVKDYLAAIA

Assay [1] deals with GST-fused human proteasome α5 subunit (human) (UniProt P28066). The assay is described as follows: condition: 50 μg of α subunits on 20 μg of immobilised GST-α5; pull-down; GST-α5 (20 μg) on Glutathione Sepharose 4B, incubated with the other α subunits (50 μg) in the absence of scPAC3/4, with or without α7; 2 h, 4 °C, 20 mM Tris-HCl pH 8.0, 150 mM NaCl; SDS-PAGE, CBB staining; both purified.

Assay [2] has the same target. The assay can be described thus: condition: 50 μg of α subunits on 20 μg of immobilised GST-α5; pull-down; GST-α5 (20 μg) on Glutathione Sepharose 4B, incubated with the other α subunits (50 μg) in the presence of 50 μg of scPAC3/4 (wild type or V77S/K80A mutant), with or without α7; 2 h, 4 °C, 20 mM Tris-HCl pH 8.0, 150 mM NaCl; SDS-PAGE, CBB staining; both purified.

For assay [3], the target named is T1, GST-fused human proteasome α5 subunit (human), P28066.
T1 chain: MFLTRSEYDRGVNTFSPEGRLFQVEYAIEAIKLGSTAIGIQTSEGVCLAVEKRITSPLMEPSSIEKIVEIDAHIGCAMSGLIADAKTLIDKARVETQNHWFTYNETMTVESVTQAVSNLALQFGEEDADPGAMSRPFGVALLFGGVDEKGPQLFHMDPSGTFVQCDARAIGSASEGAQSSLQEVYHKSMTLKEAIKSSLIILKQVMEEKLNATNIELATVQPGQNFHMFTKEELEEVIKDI
The assay can be described thus: condition: 50 μg of α subunits on 20 μg of immobilised GST-α5; pull-down; GST-α5 (20 μg) on Glutathione Sepharose 4B, incubated with the other α subunits (50 μg) in the absence of scPAC3/4, with or without α7; 2 h, 4 °C, 20 mM Tris-HCl pH 8.0, 150 mM NaCl; SDS-PAGE, CBB staining; both purified. Particulars: remark: other sources report otherwise.

Assay [4] has as its target T1, GST-fused human proteasome α5 subunit …. The assay can be described thus: condition: 50 μg of α subunits on 20 μg of immobilised GST-α5; pull-down; GST-α5 (20 μg) on Glutathione Sepharose 4B, incubated with the other α subunits (50 μg) in the presence of 50 μg of scPAC3/4 (wild type or V77S/K80A mutant), with or without α7; 2 h, 4 °C, 20 mM Tris-HCl pH 8.0, 150 mM NaCl; SDS-PAGE, CBB staining; both purified. Particulars: remark: other sources report otherwise.

No constants are given. Whether binding was seen depends on the method and setting. For part of these data: Tags and fused reporters may be left off the sequences shown.

For “human proteasome α1 subunit, non-tagged (from UniProt P60900 1-246)”, the binding result in assay [1] and in assay [2] was “no binding” in each case.

For “human proteasome α2 subunit (from UniProt P25787 1-234)”, the binding entry in assay [1] and in assay [2] was “no binding” in each case.

B1: human proteasome α7 subunit, P25788 1-255 (protein)
chain: MSSIGTGYDLSASTFSPDGRVFQVEYAMKAVENSSTAIGIRCKDGVVFGVEKLVLSKLYEEGSNKRLFNVDRHVGMAVAGLLADARSLADIAREEASNFRSNFGYNIPLKHLADRVAMYVHAYTLYSAVRPFGCSFMLGSYSVNDGAQLYMIDPSGVSYGYWGCAIGKARQAAKTEIEKLQMKEMTCRDIVKEVAKIIYIVHDEVKDKAFELELSWVGELTNGRHEIVPKDIREEAEKYAKESLKEEDESDDDNM
As to B1, the binding entry in assay [3] and in assay [4] was “no binding” throughout.
